These are yes or no findings as the source states them, for the method shown. In cells and extracts the contact can be indirect. Here binding means that the protein was enriched with, or labelled near, the bait; the list need not be complete.
Biological target: GFP-Nup98^1–920 (human) (UniProt P52948)
Test: affinity purification with mass spectrometry; GFP-Nup98 immunoprecipitated with anti-GFP on Protein G Dynabeads from HEK293T whole cell lysate (NP-40 cell lysis buffer, 250 mM NaCl, pH 7.4); SDS-PAGE, in-gel digestion, LC-MS/MS

The chains behind the UniProt entries cited, without tags or fusion partners. Where a name states a change or a piece, a line headed by the entry shows the natural chain unless it says otherwise. A line that says so, or that is headed by a name, gives the form on record, which may keep a tag or linker.
GFP-Nup98^1–920 (P52948, form named): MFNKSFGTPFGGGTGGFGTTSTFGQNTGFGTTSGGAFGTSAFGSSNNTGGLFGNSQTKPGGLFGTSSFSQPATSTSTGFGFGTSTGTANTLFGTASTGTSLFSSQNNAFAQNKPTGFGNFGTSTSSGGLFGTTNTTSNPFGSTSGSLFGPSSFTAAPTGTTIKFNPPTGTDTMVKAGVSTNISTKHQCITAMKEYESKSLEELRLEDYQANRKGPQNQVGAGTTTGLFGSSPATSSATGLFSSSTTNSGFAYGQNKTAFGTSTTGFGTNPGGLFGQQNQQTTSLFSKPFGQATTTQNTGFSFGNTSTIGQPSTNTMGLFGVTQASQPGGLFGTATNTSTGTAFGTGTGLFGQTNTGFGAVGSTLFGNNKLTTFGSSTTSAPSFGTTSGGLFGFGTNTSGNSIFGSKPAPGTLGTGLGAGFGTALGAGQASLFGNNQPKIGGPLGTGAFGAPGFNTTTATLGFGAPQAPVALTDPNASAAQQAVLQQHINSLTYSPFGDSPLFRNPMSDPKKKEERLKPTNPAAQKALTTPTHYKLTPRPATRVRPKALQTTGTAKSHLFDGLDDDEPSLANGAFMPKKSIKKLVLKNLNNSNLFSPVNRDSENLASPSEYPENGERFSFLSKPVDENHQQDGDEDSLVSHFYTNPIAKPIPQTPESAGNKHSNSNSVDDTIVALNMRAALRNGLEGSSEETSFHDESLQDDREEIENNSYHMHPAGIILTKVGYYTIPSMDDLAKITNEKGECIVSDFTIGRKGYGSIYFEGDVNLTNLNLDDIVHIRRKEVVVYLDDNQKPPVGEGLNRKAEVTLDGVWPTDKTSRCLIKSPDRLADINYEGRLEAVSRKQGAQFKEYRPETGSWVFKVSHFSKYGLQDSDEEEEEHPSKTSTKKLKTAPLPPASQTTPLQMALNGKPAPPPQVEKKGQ

B1: Rae1 (protein, UniProt P78406 1-368)
chain: MSLFGTTSGFGTSGTSMFGSATTDNHNPMKDIEVTSSPDDSIGCLSFSPPTLPGNFLIAGSWANDVRCWEVQDSGQTIPKAQQMHTGPVLDVCWSDDGSKVFTASCDKTAKMWDLSSNQAIQIAQHDAPVKTIHWIKAPNYSCVMTGSWDKTLKFWDTRSSNPMMVLQLPERCYCADVIYPMAVVATAERGLIVYQLENQPSEFRRIESPLKHQHRCVAIFKDKQNKPTGFALGSIEGRVAIHYINPPNPAKDNFTFKCHRSNGTNTSAPQDIYAVNGIAFHPVHGTLATVGSDGRFSFWDKDARTKLKTSEQLDQPISACCFNHNGNIFAYASSYDWSKGHEFYNPQKKNYIFLRNAAEELKPRNKK
For B1, the binding was “binds”.

— paper PMC5338925
